In the supplement of paper PMC3334620:
The full ranking holds about 33,000 sequences; the median of “E-score (-0.5 to 0.5)” is about -0.0034, and the highest 2% start at about 0.25. The list shows a part of the results.

Target: T1, Yap3 (UniProt P38749)
T1 sequence: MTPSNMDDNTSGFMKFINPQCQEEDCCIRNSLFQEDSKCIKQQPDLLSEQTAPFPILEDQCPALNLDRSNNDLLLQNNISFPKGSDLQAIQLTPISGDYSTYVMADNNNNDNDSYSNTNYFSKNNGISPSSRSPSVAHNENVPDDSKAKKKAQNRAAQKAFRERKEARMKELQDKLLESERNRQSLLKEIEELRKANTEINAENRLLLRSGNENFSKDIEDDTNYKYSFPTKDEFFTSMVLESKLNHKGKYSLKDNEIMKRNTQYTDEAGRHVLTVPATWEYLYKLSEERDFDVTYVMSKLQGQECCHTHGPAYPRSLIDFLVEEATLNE
Assay: PBM E-score (8-mer binding enrichment) (E-score (-0.5 to 0.5)); higher = stronger / more preferred TF binding
Conditions: protein concentration: 100 nM; construct: GST-full length
Summary of the method: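 Masliner-normalised scans of fluorescent anti-GST signal were the basis for scoring. That signal came from GST-tagged yeast transcription factors applied at about 100-200 nM to double-stranded universal all-10-mer Agilent arrays on fresh or once-stripped slides. Each ungapped eight-base word, pooled with its reverse complement, received an E-score from the Universal PBM Analysis Suite.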

Sequence | PBM E-score
GCCGGCTA | -0.0813
CGGTCACG | -0.12
AAACTTAC | 0.13
AAAACTGT | 0.187
CGTTATGA | 0.0539
AGCTAAAC | -0.143
CGTCCTCC | -0.173
ATCTAGTC | -0.00285
CCCCACCA | -0.029
ATGGGATC | -0.142
GCACTGCA | 0.0158
GACGCTAA | -0.164
CTGACGAA | 0.123
AGAGTCGA | 0.0234
ACGAGGCG | 0.0872
GACAATTA | 0.133
AGATAGCT | -0.177
CGGAGTAG | -0.0118
CCGAGGAG | -0.175
AGTTGAAC | 0.00888
AGTGTTTC | 0.0342
TGCTCACA | -0.0564
ATACTCGG | 0.137
AAGAATAC | 0.189
ATTCGAAC | 0.139

Sequence | PBM E-score
GCGCACGC | -0.106
GCAGGCGC | -0.0699
AAGGCCCC | -0.285
ACTTACGC | 0.122
CGCCCCCG | -0.356
TGGATGAA | 0.168
GACTCTGA | -0.156
GTCGGGGA | -0.0604
CACGCACA | -0.0158
GCCACACA | 0.00562
GAAGAATA | 0.164
AGTGTAAC | -0.11
CGGGGACG | -0.285
ACGAACAA | 0.228
AATTAGGG | -0.107
ACTGTGTC | -0.0354
CTGGCTAA | -0.101
CAATGGTA | 0.169
ACAATCAC | 0.154
AGGGAGCC | -0.339
ATGTCAGA | -0.0355
AAATGATT | 0.19
AGATATCC | 0.149
AGGGACAA | 0.0875
ACCCCCTA | -0.384

Sequence | PBM E-score
GTAAAGGA | 0.0965
CACTTGAG | -0.0401
TCCGTGAA | -0.0782
CTACTGGA | 0.026
AGCGAACA | 0.087
ACGATCGC | 0.155
ACGAATAA | 0.182
GCCGGGCC | -0.295
GGGCCTTA | -0.16
GACCAGAA | -0.00826
GCGAGGCC | -0.311
ACCAACCG | 0.0526
GTACGAAC | 0.212
GCAGAACA | 0.12
AGGTCTCG | -0.219
GTTTCGAA | 0.136
AGCCCCCA | -0.474
TCCTTGCA | -0.136
ATGTTTGA | 0.0942
TCCTGGCA | 0.0521
CATGTATA | 0.17
CGCCGGGA | -0.262
GCGCTCCC | -0.17
CACGAACA | 0.192
ATGCTGTG | 0.0461

Sequence | PBM E-score
ATAACGTA | 0.227
TAAGAGCA | 0.123
ACGCGCAT | 0.151
CAATAAAG | 0.114
CCCCTGGA | -0.282
GCGAATCA | 0.173
CCAAGGCC | -0.317
ATGAGTGG | -0.0814
GCTTAGAC | -0.055
CCTGGTAA | 0.0581
CCTAGTAG | -0.127
ATTGATAA | 0.119
CCCGACGA | 0.0141
AGCACAAA | 0.141
GAGTTTTA | 0.0827
CACCATGC | -0.106
GTCCCGGA | -0.103
CAAGACGG | -0.147
ACCGAATA | 0.119
ACCATCGT | -0.144
CAGATGGG | -0.188
GCATGAAC | 0.0703
GCGGAATA | 0.0469
CGGCGTTC | -0.168
CGTAGCAA | 0.0639

Sequence | PBM E-score
GAGGCTTA | -0.0282
CGCAGTCC | -0.217
CTTCCAAC | -0.134
GTGGCTTA | -0.0122
CGGTAGGC | -0.171
TTTTAAAA | 0.183
AGGGGAGA | -0.276
AGTGTACA | 0.106
TCACGCGA | 0.0612
AACGGGAG | 0.00803
GCACGCAC | -0.226
ACACATAA | 0.299
CCCCTTAA | -0.273
TCTCGGCA | -0.0847
ACACGTAG | -0.149
ACCTCACT | -0.0552
CCTCGAGA | 0.103
GCGGGACC | -0.226
GAGCTTTA | -0.0664
TAGACGGA | 0.113
AAGCTGCT | 0.0356
GATCACGC | 0.192
ACGGAGGC | -0.232
GGAGTTGA | -0.068
ACACTACA | 0.113

Sequence | PBM E-score
TCCCGCAA | 0.0613
CGTGACGA | 0.0738
ACTCTCCG | -0.175
TATTACCA | 0.196
CCAGTAGG | -0.0442
CTCCTAGC | -0.157
ACGAATAG | 0.0225
CCCCCCTC | -0.432
TATAGTAA | 0.27
TAGTACGA | 0.092
GACAACAC | 0.00619
ACCAATTA | 0.274
CGAGTCGC | -0.232
AAGCGCAT | 0.139
ACTCTTAT | 0.238
GCGGTAGA | 0.00783
CGCATACA | 0.036
TATACAGA | 0.182
GACCGTTA | 0.148
CGCGTCTC | 0.0723
TCAGGACA | 0.027
CATCGCAC | -0.0244
CAGTACCC | -0.0866
ACCCACTG | -0.0269
ACCTAAAA | 0.0796

Sequence | PBM E-score
GGCGTTCA | -0.151
GTTTTTAA | 0.161
AGCTCAAC | -0.122
AGTGACTG | -0.0201
ACCCCTCG | -0.205
GCTCCACC | -0.326
ATCGCCGG | -0.0339
ACCGTCGG | -0.163
AACCCATA | 0.169
TCTCTGAA | -0.0643
AGTATCCC | 0.0469
AACATTGT | 0.143
GCTCTACC | -0.182
AAAAAGAA | 0.195
AACTCGGT | 0.0084
AATGAAAT | 0.21
ACATGATG | -0.0314
AATTACGG | 0.235
ATAGAATC | -0.0749
ACGAGAGA | -0.0425
AGCTACAA | 0.024
ATGATGGC | -0.00809
